Source: PubChem BioAssay AID1347423 (Functional Genomics Laboratory (NCATS/FGL), 2020)
Among all 52,000 sequences or so, about 210 (0.4%) were called active.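 How the source made its calls: active means gene whose silencing raises cell survival under the drug, median off-target-corrected z-score across its silencing RNAs 2 or more; inactive means the rest.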 The list shows a part of the results.

assay: Resistance to Poly (ADP-Ribose) Polymerase inhibitor: Gene Identification via Genome-wide siRNA Screen; conditions: mouse BRCA2 R2336H ES cells, olaparib, CellTiter-Glo viability; stronger effect = higher value
Method in brief: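 Mouse BRCA2 R2336H ES cells were reverse-transfected with siRNA (20 nM final), treated at 48 h with 500 nM olaparib, and read by CellTiter-Glo after 72 h. Scores: MAD-based z per siRNA, median per gene, seed off-target correction.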

Row | Sequence | z-score
1 | GCGGUAUCAUCAGUGAACCTT against Cxxc5 | inactive: -0.13
2 | GGAGGCUGUGUUCUGAUGGTT against Mlycd | inactive: -2.38
3 | GGCCAUUCUACUAACAGUATT against 1110014C03Rik | inactive: -1.05
4 | CCUAACAACCAGUUUAUGATT against Rasa1 | inactive: 0.285
5 | GGGAAAUUCUGUUCUUUUGTT against Gng11 | inactive: 0.319
6 | GCAUAGGGUCAUUUCAAGCTT against Kif23 | inactive: 0.173
7 | GCUCGUUUGAUGCUGUCUCTT against Prkag1 | inactive: -0.486
8 | GGAGUAGAUGACAACACUATT against Defb19 | inactive: -0.629
9 | GGAGUCUCUGAAGAAAACATT against Hus1 | inactive: -0.527
10 | GGUUUUGGUUUUGUGGAAUTT against Sfrs5 | inactive: -0.339
11 | GGCUUCAUUGACAAGAAUATT against Myo1g | inactive: -0.469
12 | GGUGAAAGUCACUAAAUCCTT against V1rc6 | inactive: 1.44
13 | GCCAAAUGGUGUCAAUAUUTT against Rab33a | inactive: -0.443
14 | GGACAGAGAAAAAGUAUCATT against Eps8l1 | inactive: 0.0467
15 | GGCUUUCAAAUGAUUAAAGTT against D430033N04Rik | inactive: 1.92
16 | GCACUUUGUGCUAGAUGAATT against Ddx39 | inactive: -0.865
17 | GGAGAUGGUUAUUUAAAGATT against Wbp2 | inactive: 1.53
18 | CUCUGUCUUGAUUGUCAUUTT against Olfr1329 | inactive: -0.213
19 | CCACUACAACAACACUUAUTT against Keg1 | inactive: 0.16
20 | GGCAAUCUCCUUUAAUUGATT against 2810439M05Rik | inactive: 0.759
21 | CCAUGGAUAUUAUCUGUACTT against Olfr538 | inactive: -0.725
22 | GCACUUAGUCCUACAUGACTT against Fut1 | inactive: 0.125
23 | GCUAUCGUGAUAAUCUGGATT against BC049816 | inactive: -0.392

Row | Sequence | z-score
24 | GGGUUACGGUUGUGGAUGUTT against Ugdh | inactive: 0.0867
25 | GGGACAAUGAUGUUUUUGUTT against AI662250 | inactive: 0.0717
26 | GGUGGAGAUGAUGGUUCAGTT against Tbxa2r | inactive: 1.75
27 | CCACUCUUAAGAGGAUAUATT against 4930572J05Rik | inactive: -0.224
28 | GGUGACCAGGCUUAAAUCGTT against Bet1l | inactive: 0.291
29 | CGAAGUGACAAUAAAUCAGTT against Snapc5 | inactive: 1.18
30 | GGGAAGAAGAGGAAGGAUUTT against Taf1a | inactive: -1.4
31 | CGACCAUGUGACUUGUGUCTT against Lrp1b | inactive: -0.569
32 | CCAUCGAAUGAAACUCAUGTT against Trim24 | inactive: 0.397
33 | GGCAGCUCCUCAUGAUAUUTT against Nagk | inactive: 1.35
34 | CGGAGAUUGUCCAAUGCAUTT against C630004H02Rik | inactive: -0.524
35 | GGGCAAUGCUCAUGAGUUATT against Figf | inactive: 0.459
36 | GGAAUUCCUUCGUUUCCUUTT against Usp2 | inactive: 0.187
37 | GGAUUAGCCUGGUCCUUUUTT against Dusp14 | inactive: -0.621
38 | GGACUCCAAGUCGCUCGUATT against 4930438O05Rik | inactive: -0.908
39 | GUUCCUGUUCCACUACUGCTT against Sts | inactive: -1.51
40 | GCGUGGUACCUCAAGUCUATT against Map3k5 | inactive: -0.437
41 | GGAGGAAAGAAUGUGUAAATT against Birc3 | inactive: -0.544
42 | GGUGUUAAACACUGAUUCUTT against Brs3 | inactive: -0.118
43 | GGUGGUGGUGCUUUUUGACTT against 1810054O13Rik | inactive: -0.0935
44 | CGCAUACUGUAAAAACUUCTT against 2310010B21Rik | inactive: 0.435
45 | GGCACUCUCAGCUUUUGACTT against Olfr2 | inactive: -0.248
46 | GGAUUUUAUCUCCUUUCAATT against Tecta | inactive: 1.5

Row | Sequence | z-score
47 | GGAGAAACUUUUGUCUUCCTT against 2210409B01Rik | inactive: 1.17
48 | GGCGUGGAAUCACUUUCCATT against B930093C12Rik | inactive: -0.421
49 | GGUCUGGAAUGGAGAACAGTT against Suox | inactive: 1.27
50 | GAGCGAGUUCGAUUGCUUCTT against Cited4 | inactive: -0.0946
51 | GCUUCGGAAUCGGUUACCATT against Alg2 | inactive: 0.756
52 | GGAUAUCCAAGUAAGGUGUTT against Mrpl9 | inactive: 0.692
53 | CCGAAGCUUUAUCUUCUAUTT against Pkd2 | inactive: 0.751
54 | GGACAAAGGCUGUAUUUUCTT against Tgm3 | inactive: 1.61
55 | GGUUCUGACUUGAGAAAACTT against BC022687 | inactive: -0.323
56 | GCGAGAUGGAAGGAUCUUGTT against Anapc13 | inactive: -2.4
57 | GGUUCUCAUACAUAAACAATT against 2410018C20Rik | inactive: 1.72
58 | GGAAGAUGGGCGACUCUAUTT against AW209059 | inactive: -2
59 | GGAUGGGUUUGAUCUUAAUTT against Il13ra2 | inactive: -0.495
60 | GGGAAGAAAGACUCAAACUTT against Dcdc2 | inactive: 1.12
61 | GGUAGACUCUAGAUUAAGATT against Srrm2 | inactive: -0.841
62 | GCAAACGACUGUGACAAAATT against 2010109I03Rik | inactive: -0.0965
63 | GCCAUUUUGCGUGUGGCACTT against Rutbc3 | inactive: 1.72
64 | CCCUGCUUAACAAACCAACTT against Ggcx | inactive: 0.0222
65 | CGAUUGGAAUGACCGAGAGTT against Ars2 | inactive: 0.331
66 | GUGUAAGAUCUGACACUUUTT against 4833428E21Rik | inactive: 0.0682
67 | GCAGAGGAUUGAUGCACACTT against LOC235779 | inactive: -1.08

A few values from above:
GGAUUAGCCUGGUCCUUUUTT against Dusp14 | z-score: inactive: -0.621
GUGUAAGAUCUGACACUUUTT against 4833428E21Rik | z-score: inactive: 0.0682
